Measurements taken from patent US20090099062A1 (priority 2007, published 2009).

System: SW620 cells
Conditions: SW620, in the presence of pyrvinium

## Cc1cc(/C=C/c2ccc3cc(N(C)C)ccc3[n+]2C)c(C)n1-c1ccccc1 [pyrvinium, pyrvinium pamoate]
  5-FU-induced apoptosis: greatly enhanced
